No constants are given. Whether binding was seen depends on the method and setting. In cells and extracts the contact can be indirect. Some entries that bind do so weakly or less than the wild type.
Tests used:
[1] = biological target: Flag tagged TLR4 (human) (UniProt O00206); assay: co-immunoprecipitation (Flag beads) from TLR4-transfected HEK293 cells, LPS time course 0 minutes to 24 hours, immunoblot for TLR14
[2] = biological target: Flag tagged TLR4 (human) (UniProt O00206); assay: co-immunoprecipitation (Flag beads) from TLR4-transfected HEK293 cells after LPS, immunoblot for TLR14
[3] = biological target: Flag tagged TLR4 (human) (UniProt O00206); assay: co-immunoprecipitation (Flag beads) from transfected HEK293 cells, immunoblot for TLR14
[4] = biological target: Flag tagged TLR2 (UniProt O60603); assay: as above
[5] = biological target: Flag tagged TLR4 (human) (UniProt O00206); assay: co-immunoprecipitation (Flag beads) from TLR4-transfected HEK293 cells, LPS for 2 hours, immunoblot for TLR14
[6] = biological target: Flag tagged TLR2 (UniProt O60603); assay: co-immunoprecipitation (Flag beads) from TLR2-transfected HEK293 cells, Pam2Cys4 for 2 hours, immunoblot for TLR14

The chains behind the UniProt entries cited, without tags or fusion partners. Where a name states a change or a piece, a line headed by the entry shows the natural chain unless it says otherwise.
UniProt O00206: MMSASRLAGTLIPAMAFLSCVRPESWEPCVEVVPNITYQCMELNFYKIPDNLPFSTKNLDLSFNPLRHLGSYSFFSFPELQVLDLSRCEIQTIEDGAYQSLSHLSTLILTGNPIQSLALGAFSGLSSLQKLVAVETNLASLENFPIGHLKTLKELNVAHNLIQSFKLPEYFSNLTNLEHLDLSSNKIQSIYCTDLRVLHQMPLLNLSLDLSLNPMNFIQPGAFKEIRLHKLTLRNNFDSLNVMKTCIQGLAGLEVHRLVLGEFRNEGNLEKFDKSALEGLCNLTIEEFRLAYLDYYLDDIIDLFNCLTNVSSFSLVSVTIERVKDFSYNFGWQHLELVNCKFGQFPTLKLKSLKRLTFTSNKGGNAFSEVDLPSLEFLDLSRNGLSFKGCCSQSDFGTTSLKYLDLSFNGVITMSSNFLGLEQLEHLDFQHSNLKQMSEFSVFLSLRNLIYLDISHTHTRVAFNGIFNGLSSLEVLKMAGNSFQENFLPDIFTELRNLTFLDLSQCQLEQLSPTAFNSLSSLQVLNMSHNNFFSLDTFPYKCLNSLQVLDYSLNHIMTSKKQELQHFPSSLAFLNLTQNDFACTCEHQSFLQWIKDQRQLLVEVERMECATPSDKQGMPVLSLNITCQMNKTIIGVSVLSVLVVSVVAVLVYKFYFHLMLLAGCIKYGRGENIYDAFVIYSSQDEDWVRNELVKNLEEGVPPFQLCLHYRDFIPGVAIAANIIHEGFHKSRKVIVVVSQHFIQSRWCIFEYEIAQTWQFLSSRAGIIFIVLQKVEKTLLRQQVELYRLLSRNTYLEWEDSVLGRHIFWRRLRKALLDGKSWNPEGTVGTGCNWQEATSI
UniProt O60603: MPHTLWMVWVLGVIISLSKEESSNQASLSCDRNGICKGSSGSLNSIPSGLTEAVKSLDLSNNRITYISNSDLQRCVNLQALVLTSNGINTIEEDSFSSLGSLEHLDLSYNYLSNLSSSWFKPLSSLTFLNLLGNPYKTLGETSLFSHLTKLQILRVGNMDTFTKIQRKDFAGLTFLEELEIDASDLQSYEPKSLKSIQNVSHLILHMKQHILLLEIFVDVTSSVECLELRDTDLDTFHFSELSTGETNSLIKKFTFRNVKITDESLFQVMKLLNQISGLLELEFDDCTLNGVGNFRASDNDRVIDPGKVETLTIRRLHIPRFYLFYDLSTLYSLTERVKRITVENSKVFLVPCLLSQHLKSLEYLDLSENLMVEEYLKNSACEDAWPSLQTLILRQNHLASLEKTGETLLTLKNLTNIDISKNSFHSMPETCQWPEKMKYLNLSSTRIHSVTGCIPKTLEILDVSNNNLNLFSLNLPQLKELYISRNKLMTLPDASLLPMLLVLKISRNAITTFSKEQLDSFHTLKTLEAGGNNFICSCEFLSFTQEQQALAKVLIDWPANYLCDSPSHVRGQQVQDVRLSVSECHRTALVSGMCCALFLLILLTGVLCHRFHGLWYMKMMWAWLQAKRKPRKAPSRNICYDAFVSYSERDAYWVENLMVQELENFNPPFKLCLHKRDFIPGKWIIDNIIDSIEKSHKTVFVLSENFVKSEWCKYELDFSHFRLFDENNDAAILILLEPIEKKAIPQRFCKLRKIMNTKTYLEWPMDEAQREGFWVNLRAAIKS

Measured: binding

B1: endogenous Toll-like Receptor 14 (TLR14) (receptor)
chain: VCPERCDCQHPQHLLCTNRGLRVVPKTSSLPSPHDVLTYSLGGNFITNITAFDFHRLGQLRRLDLQYNQIRSLHPKTFEKLSRLEELYLGNNLLQALAPGTLAPLRKLRILYANGNEISRLSRGSFEGLESLVKLRLDGNALGALPDAVFAPLGNLLYLHLESNRIRFLGKNAFAQLGKLRFLNLSANELQPSLRHAATFAPLRSLSSLILSANSLQHLGPRIFQHLPRLGLLSLRGNQLTHLAPEAFWGLEALRELRLEGNRLSQLPTALLEPLHSLEALDLSGNELSALHPATFGHLGRLRELSLRNNALSALSGDIFAASPALYRLDLDGNGWTCDCRLRGLKRWMGDWHSQGRLLTVFVQCRHPPALRGKYLDYLDDQQLQNGSCADPSPSASLTADRRRQPLPTAAGEEMTPPAGLAEELPPQPQLQQQGRFLAGVAWDGAARELVGNRSALRLSRRGPGLQQPSPSVAAAAGPAPQSLDLHKKPQRGRPTRADPALAEPTPTASPGSAPSPAGDPWQRATKHRLGTEHQERAAQSDGGAGLPPLVSDPCDFNKFILCNLTVEAVGADSASVRWAVREHRSPRPLGGARFRLLFDRFGQQPKFHRFVYLPESSDSATLRELRGDTPYLVCVEGVLGGRVCPVAPRDHCAGLVTLPEAGSRGGVDYQLLTLALLTVNALLVLLALAAWASRWLRRKLRARRKGGAPVHVRHMYSTRRPLRSMGTGVSADFSGFQSHRPRTTVCALSEADLIEFPCDRFMDSAGGGAGGSLRREDRLLQRFAD
binds: all assays above
